Data on 107 sequences can be found in PubChem BioAssay AID1347426 (Functional Genomics Laboratory (NCATS/FGL), 2020).

Out of some 31,000 sequences screened, about 1,400 (4.5%) were called active.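 Rule for the calls: active = median seed-adjusted z-score above 1 or below -1; inactive = the rest.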 The list shows a part of the results.

This assay is described as follows: Novel Modifiers of Survival Motor Neuron (SMN) Protein: Gene Identification via Genome-wide siRNA Screen.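 Note: luminescence tracks full-length SMN protein made from the SMN2 reporter.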 The following applies: HEK293T SMN2-luciferase reporter, siRNA knockdown, 72 h; actives lie on both sides. A digest of the protocol: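 siRNA screen, 10418 genes ×3 siRNAs; 1 pmol/well, lipid reverse transfection into HEK293T SMN2-luc reporter line. 72 h, 37 °C, 5% CO2; ONE-Glo readout. Data: neg-ctrl normalized, log10, MAD; hit = MAD >1.0 or < -1.0.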
In general terms: A reporter such as luciferase makes a cellular process visible.
In the case of GCCUUUAAGCACUAAUGAATT against CST8, the median seed-adjusted z-score was inactive: -0.0126.
Turning to GGAAGGCAAUCAGUGGGUATT against VRK2, the median seed-adjusted z-score was inactive: -0.183.
As to GCUUGGAUGUGAAUCAGGATT against S100A13, the median seed-adjusted z-score is inactive: 0.153.
In the case of GAGGAGUUCUCAGAAAUCATT against SLC16A2 it was inactive: -0.302; in that of CCAAGGAACCUGACAACCATT against GGT1, inactive: -0.0421; in that of CGACAUUGAUUAUAGCUUATT against LBP, inactive: -0.207.
In the case of GGAUCUCACAGGUUCCGUUTT against LARS2 it was inactive: 0.25; in that of GGCCCAUCACCAUAUCUGATT against RNF216, inactive: -0.246.
On to GGAACUUACUACAACUCCATT against TMPRSS6, for which the median seed-adjusted z-score is active: 1.29.
GGACAUGAACCUUAACGAATT against DIAPH2: the median seed-adjusted z-score was inactive: -0.0149.
GGAUGUGGGUAAAUCCCAATT against FOXR1: the median seed-adjusted z-score was inactive: -0.153.
Take GCACUGAACCUUUGAUCUCTT against KRTAP23-1: the median seed-adjusted z-score is inactive: 0.647.
The result for GUAAAAUGGUUCAAUGUAATT against YBX1 reads inactive: -0.0115; that for CCACGAAAGGGAAUCUUAATT against SALL1, inactive: -0.526; that for GCCUGUGAAGUUUACCAUATT against TMEM87B, inactive: -0.51.
In the case of GCAUCAACUUUCCCGGUCATT against LTBP3 it was inactive: -0.0236; in that of CCAACAUCGAGUCCCUCAATT against SLC29A3, inactive: -0.0626; in that of CAGACAGAGUCAAGCGGAATT against DIO1, inactive: 0.0467.
The result for CUCUCAGUAUGACAAGGAATT against SPOCK3 reads inactive: 0.329; that for GCGAGGCUCCUGUUUAAUATT against DCTD, inactive: 0.
As for GGUUUCAUCCUGGUUUAUATT against RAP2C, the median seed-adjusted z-score is inactive: 0.443.
GCACAACAGUUGGAUCAAATT against MARK1: the median seed-adjusted z-score was inactive: 0.341.
For AGUACGCUUUGAAAACCAUTT against HMX2, the median seed-adjusted z-score is inactive: -0.547.
CUGGGUGCCUGAUACCUAUTT against GABRB2: the median seed-adjusted z-score is inactive: 0.288.
The result for AGAAGGGACUGGACCCAUATT against COX5B reads inactive: 0.45; that for GAGUAUAUCCUGUACAACATT against CTSH, inactive: -0.81.
With GGUCAUUGCUACGACAUCATT against UGCGL1, the median seed-adjusted z-score was inactive: -0.391.
In the case of CAGAUUACGUUUAUAAGAATT against ZNF274 it was inactive: 0.452; in that of CAAUUUCGAUCAGACUACATT against GNAL, inactive: -0.178.
In the case of GCUAUUAUCUAAGCACGAATT against ADAMTS20 it was active: 1.44; in that of CCAACAAUCCCUACGACUATT against MYH6, inactive: 0.
In the case of GCACAGCAACGCAACCUCATT against HIC1, the median seed-adjusted z-score was inactive: 0.523.
The result for GAUCAGGUGCUGUUCCAUATT against DGAT2L3 reads inactive: 0.247; that for CUCCCUUAAUGAGCAAGGATT against GNB3, inactive: -0.373; that for GGGUGUAAGAGAACAUGAATT against PHOSPHO2, inactive: -0.247.
CCAGUAAACAUAUCCGUCATT against KRT84: the median seed-adjusted z-score was inactive: -0.645.
Regarding CUAAGGAACUUUUACUUCATT against IFNB1, the median seed-adjusted z-score is inactive: 0.
As for CAUACUCAUUCUUGCAAUATT against PHOSPHO2, the median seed-adjusted z-score was inactive: -0.247.
As to GAGUCAGAUUAGUCAAUGUTT against FSD1L, the median seed-adjusted z-score is inactive: 0.166.
In the case of CGGUGAUCAUGGUUGCUCATT against TOMM40L it was inactive: 0.12; in that of GGAUGAGAAUAAUACUCGATT against SCG2, inactive: 0.155.
The result for GCUCAUCUACUACUAUUUATT against ALG11 reads inactive: 0.183; that for GCUGAGGCCUUGUACCAGATT against KRT78, inactive: 0.306.
In the case of GACUCUCUGAGGUAGAAAATT against EPN3, the median seed-adjusted z-score is inactive: 0.184.
In the case of GGAGAGUUCGAAUUGCUCUTT against GSTZ1 it was inactive: -0.144; in that of GCUAAGUUGCAUUCCGAAATT against EEA1, inactive: 0.0278.
The result for UCUGAUUACUUAUACUUCATT against ZNF366 reads inactive: 0.585; that for GUAUGGGCGACUAACCAGATT against ENTPD4, inactive: 0.324.
The result for CUCUAUCCCUGAGUACUUATT against PDXP reads inactive: -0.302.
For CAGACUUUCUUAAGGCUAATT against ACVR2A, the median seed-adjusted z-score was inactive: -0.22.
The result for CAGUGUAUCUUCAUAAGAUTT against TAF1L reads inactive: 0.289; that for UGAUGUCCGUAGGCCUUAATT against KRT13, inactive: 0.101.
The result for CAUUUUGCCUAGAUAAAGATT against PGRMC2 reads inactive: -0.223.
In the case of GGUUCUUGUGGUUUACCCATT against IL17RB it was inactive: -0.464; in that of CAAGAAACAUCAAAGCGAUTT against TADA2L, inactive: 0.0455; in that of CUUAGACUGUUUCCACUUATT against PARK2, inactive: 0.146.
For CAGAAACGAUCUACAAGAATT against MEPCE, the median seed-adjusted z-score was inactive: -0.35.
The result for GUGUUGCACAGAUGCGUGATT against AIP reads inactive: 0.529; that for ACAUAAUAGCCAAACUAGATT against ZNF174, inactive: 0.035.
In the case of GCAAACCUGUGACUUCCAATT against SYT10 it was inactive: 0; in that of GCAUCAUGCUUCCCGAGAATT against LPAR2, inactive: 0.171.
With GACUAUUACCUGUACGGGATT against XYLT1, the median seed-adjusted z-score is inactive: -0.274.
Regarding CAGGUAUUCUGGUCAAUAUTT against ATL3, the median seed-adjusted z-score was inactive: 0.201.
The result for GGAUGAACUUGUCUAUGCATT against ESRRG reads inactive: -0.681.
In the case of CCUUUACCCUAUCUUCACATT against ZNF708 it was inactive: 0.0562.
Take UAAGUGUUGUGAGAAAUGATT against SLC25A2: the median seed-adjusted z-score is inactive: 0.586.
For GGGUGUUUCUCUAUGAGAATT against P2RX1, the median seed-adjusted z-score is inactive: 0.908.
The result for AUGGUUACCUGUUCACCUATT against SLC7A10 reads inactive: -0.732.
The result for GGAACAUUUUUGACGGAUUTT against SCN8A reads inactive: 0; that for ACCUCAAAAAGGUUACUAUTT against CHN2, inactive: -0.478; that for GGAUAGGACUGGUGGAACATT against PLA1A, inactive: 0.197.
In the case of ACUUGGAUCAUUUCCCUGATT against SLC13A5 it was inactive: 0; in that of CAGAUGACAUCAAAAUGGATT against STX1B, inactive: 0.229; in that of CAAUAUCUCUCGGAUCUAUTT against AMBP, inactive: -0.679.
With GGAUCUACAUGGGCUUCAATT against AVPR1B, the median seed-adjusted z-score is inactive: -0.423.
As to GCAACUUCCUAGAACUGUUTT against PCYT1B, the median seed-adjusted z-score was inactive: 0.177.
The result for GGAGUGCAAAAGGAACGAATT against APIP reads inactive: -0.0945.
In the case of CUGAAUAUGUGCAUCGAUATT against GLS it was inactive: 0; in that of CGGCAGAACACGUCUCAGATT against TACSTD2, inactive: -0.681.
For the sequence GCAGGUCAAAUUUCCAUAATT against ZNF175, the median seed-adjusted z-score is inactive: -0.0194.
For the sequence GAACUGCAUUGAACUAAAUTT against CD3G, the median seed-adjusted z-score was inactive: -0.0274.
As for GCUGAGGAGUUUCUGCGGATT against PARP10, the median seed-adjusted z-score was inactive: -0.454.
In the case of ACGACCACGUGAGAGCCAATT against HAGHL, the median seed-adjusted z-score was inactive: -0.334.
On to GGUUGUUCCUCACCCGAUATT against EGF, for which the median seed-adjusted z-score was inactive: 0.00831.
The result for GAACAGGGACUGUUAGGAATT against SPRY1 reads inactive: 0.642.
Take GAACCAUUAUCAAUAAGCUTT against TRAIP: the median seed-adjusted z-score was inactive: -0.018.
The result for UGGUCCGACUGGUACGACATT against TAC1 reads inactive: 0.0499; that for GAAUUUGCCCUAGACUUAATT against OGFOD1, inactive: 0.442.
For the sequence UGUCUGCUAUGAUCUCUUUTT against ZFPL1, the median seed-adjusted z-score is inactive: -0.072.
The result for GGCUCGCAAUUUUGAGAGATT against THEM2 reads inactive: 0.449.
The result for CGGAAGAACUGGACCAUCATT against CDH4 reads inactive: 0.
In the case of GGGAGAGUGGUGAACGUAUTT against CBR1 it was inactive: -0.6; in that of GGUGUUGUCUUGAGGUACATT against ADAMTS1, inactive: 0.173; in that of CGUCUAUGCCUAUAAAAUATT against ADORA3, inactive: 0.
For the sequence GCCCUGAAGAUAUCGUGAATT against PARVG, the median seed-adjusted z-score is inactive: 0.321.
The result for CUGGAACAGUGUACCCAAATT against CD2AP reads inactive: 0.113; that for CAUGGAAAAUGAUGACGAATT against PPP4R2, inactive: 0.211.
Consider GCUCCUGGAGUUAAGCUUATT against SPINK2, for which the median seed-adjusted z-score was inactive: -0.431.
Turning to GAAUGCGUCCAGAAAUAAATT against NDUFA11, the median seed-adjusted z-score is inactive: -0.722.
For GGGUGACUCCAGAUCAGCUTT against SLC26A10, the median seed-adjusted z-score is inactive: -0.169.
For CGAGAAAUGUUUAUGAAGATT against NDUFA6, the median seed-adjusted z-score is inactive: -0.457.
The result for GCAUCAGUGGAGUACAUCATT against TFEC reads inactive: -0.0734; that for GGACAAUCCUUUCAUUAAUTT against HTR3C, inactive: -0.221.
As to GCCGAGUCUCAAUAUCUGUTT against FOSB, the median seed-adjusted z-score is inactive: 0.266.
The result for GGGUCAUCCUGUUGCCAAUTT against KRTAP5-1 reads inactive: 0.
In the case of CAAUCUCCCUGGAGUUGAATT against TRIM68 it was inactive: -0.628; in that of GGUUUCUAGGUAAUAGUAATT against ORC1L, inactive: -0.536.
